Measurements as given in PubChem BioAssay AID504834 (National Center for Advancing Translational Sciences (NCATS), 2011).
The whole screen tested about 320,000 compounds, of which about 22,000 (6.9%) were called active. This list was built around the results that the source calls inconclusive (neither active nor inactive); the mix of calls is not that of the screen. Calls follow the shape of the dose curve; as a rule, active = well fitted inhibition curve with a large enough effect; inconclusive = small, poorly fitted or top-dose-only effect, or another doubt; inactive = no such curve, though single readings can be large or run the other way. Potencies of inconclusive entries are doubtful fits and often do not repeat.
Potency is read from the fitted curve at half-maximal effect.

Test: Primary qHTS for delayed death inhibitors of the malarial parasite plastid, 96 hour incubation
Details: P. falciparum luciferase reporter growth; series mostly up to 28.7 µM
Method in brief: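 Cell-based qHTS: luciferase-tagged P. falciparum in erythrocytes (2% hematocrit, 0.05% parasitemia final) incubated with compounds for 96 hours, 37 C, 5% CO2; luciferase detection reagent then added and luminescence measured.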
With `CCOC(=O)c1ccc2nc(CCC(=O)N[C@H](C(=O)OC)C(C)C)c(=O)n(CC)c2c1` the Potency was inconclusive: 9.28 µM [inhibitor, single point].
For `COc1ccc(-n2c(O)c(/C=C3\C=Nc4ccc(Br)cc43)c(=O)[nH]c2=O)c(OC)c1`, the Potency was inconclusive: 9.28 µM [inhibitor, single point].
For `CCc1cc2c(NCCC(=O)O)ncnc2s1`, the Potency was active: 11.7 µM.
In the case of `C=CCc1ccc(OCC(O)CN2CCCCC2)c(OC)c1` (configuration not stated), the Potency is reported as inconclusive: 11.7 µM [inhibitor, single point].
With `CC(=O)Nc1ccc(/C=C/c2ccc3c([N+](=O)[O-])cccc3n2)cc1` the Potency was “inactive”.
In the case of `Cn1nc(-c2ccc(OCC(=O)Nc3ccccc3)cc2)c2ccccc2c1=O`, the Potency is reported as inconclusive: 14.7 µM [inhibitor, partial curve, poor fit].
In the case of `O=C(CCC(=O)N1CCN(c2ccc(F)cc2)CC1)N1CCN(c2ccc(F)cc2)CC1`, the Potency is reported as inconclusive: 18.5 µM [inhibitor, single point].
With `COc1cccc(CCC(=O)Nc2cc3c(cc2C(=O)O)OCCCO3)c1OC` the Potency was inconclusive: 18.5 µM [inhibitor, single point].
In the case of `COc1ccc2cc(S(=O)(=O)N3CCCCCC3)ccc2c1`, the Potency is reported as inconclusive: 9.28 µM [inhibitor, partial curve, poor fit].
For `Cc1ccc(OCC(=O)N/N=C/c2ccc([N+](=O)[O-])o2)cc1`, the Potency was inconclusive: 5.22 µM [inhibitor, partial curve, poor fit].
For `CCCCCCNC(=O)CCNS(=O)(=O)c1ccc(C)cc1`, the Potency was inconclusive: 2.33 µM [inhibitor, full curve].
With `CC(=O)NN1C(=O)c2ccccc2NC1c1cccnc1` (configuration not stated) the Potency was inconclusive: 18.5 µM [inhibitor, single point].
With `Cc1cc(=O)[nH]c(SCC(=O)O)c1C#N` the Potency was “inactive”.
For `CC1(C)CC(=O)CC(C)(C)N1OC(=O)c1ccncc1`, the Potency was inconclusive: 0.37 µM [inhibitor, partial curve, poor fit].
For `COC(=O)N1N=C(c2ccccc2)CC1(O)C(F)(F)F` (configuration not stated), the Potency was “inactive”.
In the case of `COc1ccccc1C(=O)NCCC(=O)N1CCN(S(=O)(=O)c2ccc(Cl)cc2)CC1`, the Potency is reported as active: 13.1 µM.
With `COC(=O)c1ccc(-n2nc(C(F)(F)F)c3c2-c2ccoc2CC3)cc1` the Potency was inconclusive: 18.5 µM [inhibitor, single point].
For `O=C(CN(c1ccc(Cl)cc1)S(=O)(=O)c1ccccc1)N1CCN(c2ccccc2)CC1`, the Potency was inconclusive: 5.86 µM [inhibitor, partial curve, poor fit].
For `c1cc2c(cc1OCCNC1CCCC1)CCC2`, the Potency was active: 11.7 µM.
For `C=CCNC(=S)N1CCN(c2cccc(C(F)(F)F)c2)CC1`, the Potency was inconclusive: 18.5 µM [inhibitor, single point].
For `COc1ccccc1NC(=O)N1c2ccc(F)cc2CCC1C` (configuration not stated), the Potency was active: 4.65 µM.
For `Cc1c(OC(C)C(=O)NCc2ccccn2)ccc2c3c(c(=O)oc12)CCCC3` (configuration not stated), the Potency was active: 1.65 µM.
With `COc1ccc(NC(=O)CN2C(=O)COc3ccc(S(=O)(=O)N4CCOCC4)cc32)c(OC)c1` the Potency was inconclusive: 9.28 µM [inhibitor, partial curve, poor fit].
For `CS(=O)(=O)N1CCC(C(=O)NNC(=O)Nc2ccc(F)c(Cl)c2)CC1`, the Potency was inconclusive: 9.28 µM [inhibitor, partial curve].
For `Cc1cc(C(=O)N/N=C/c2c(C)[nH]n(-c3ccccc3)c2=O)n[nH]1`, the Potency was inconclusive: 13.1 µM [inhibitor, partial curve, poor fit].
With `Cc1ccc2nc(/C(C#N)=C/c3cn[nH]c3-c3ccc(F)cc3)[nH]c2c1` the Potency was inconclusive: 8.28 µM [inhibitor, partial curve, poor fit].
For `CC(=O)Nc1ccc2nc(-c3ccncc3)[nH]c2c1`, the Potency was “inactive”.
For `Cc1ccc(S(=O)(=O)NC(C)C(=O)Nc2ccccc2C(=O)N2CCCC2)cc1` (configuration not stated), the Potency was inconclusive: 10.4 µM [inhibitor, single point].
For `CC(OC(=O)C(C)Oc1ccccc1)C(=O)Nc1ccc(S(=O)(=O)N2CCCCC2)cc1` (configuration not stated), the Potency was inconclusive: 18.5 µM [inhibitor, single point].
In the case of `CCOC(=O)c1c(C)[nH]c(C(=O)COC(=O)c2c(CC)noc2C)c1C`, the Potency is reported as inconclusive: 11.7 µM [inhibitor, single point].
For `O=[N+]([O-])c1ccc(S(=O)(=O)N/N=C/c2ccsc2)cc1`, the Potency was “inactive”.
In the case of `CCOc1cccc(CN2CCCC(CNC(=O)c3cccc(OC)c3OC)C2)c1` (configuration not stated), the Potency is reported as inconclusive: 6.57 µM [inhibitor, partial curve].
In the case of `COc1cccc(CNCCO)c1OCc1ccc(Cl)cc1`, the Potency is reported as inconclusive: 9.28 µM [inhibitor, single point].
With `CC(=O)Nc1cccc(C(=O)Nc2ccc(S(=O)(=O)N3CCCCC3)cc2)c1` the Potency was inconclusive: 7.38 µM [inhibitor, partial curve, poor fit].
In the case of `COc1ccc(NC(=O)CCn2c(=O)c3cccn3c3ccccc32)cc1`, the Potency is reported as inconclusive: 18.5 µM [inhibitor, single point].
In the case of `Cc1cc(C)cc(NC(=O)COc2ccc3c(C)c(Cc4ccccc4)c(=O)oc3c2)c1`, the Potency is reported as inconclusive: 16.5 µM [inhibitor, single point].
In the case of `CCCCNc1cc(C)oc(=O)c1C(C)=O`, the Potency is reported as inconclusive: 13.1 µM [inhibitor, single point].
In the case of `CC(C)c1cc(C(=O)N/N=C/C(Br)=C/c2ccccc2)n[nH]1`, the Potency is reported as active: 3.29 µM.
For `O=C(N1CCCCC1)C1(c2ccccc2)CCOCC1`, the Potency was active: 11.7 µM.
With `O=C(Nc1ccc2nc3n(c(=O)c2c1)CCCC3)c1ccccc1F` the Potency was inconclusive: 18.5 µM [inhibitor, single point].
In the case of `O=c1oc2c(CN3CCCCC3)c(O)ccc2c2c1CCCC2`, the Potency is reported as inconclusive: 18.5 µM [inhibitor, partial curve, poor fit].
With `CCCNC(=O)C(Cc1ccccc1)NC(=O)c1ccc(C(C)(C)C)cc1` (configuration not stated) the Potency was inconclusive: 20.8 µM [inhibitor, partial curve, poor fit].
